In patent US9174925B2 (priority 2011, dated 2015):
Where two headings read alike, the source gives them in different places. Some entries share one result that the patent states for a list of compounds.

Tested on: NK92 cells
Type: cell-based, human
Conditions: for production of IFN-γ in NK92 cells: 12 hours culture, ELISA; for effect on IFN-γ production compared to the same dose of Daphne genkwa methanol extract (P10): 64 nM, FIG. 7

Row | Compound | production of IFN-γ in NK92 cells (FIG. 7 and FIG. 8) | production of IFN-γ in NK92 cells (FIG. 7 and FIG. 8, listed as compound 2) | effect on IFN-γ production compared to the same dose of Daphne genkwa methanol extract (P10) | production of IFN-γ in NK92 cells (FIG. 7 and FIG. 8, listed as compound 3) | production of IFN-γ in NK92 cells (FIG. 7 and FIG. 8, listed as compound 1) | production of IFN-γ in NK92 cells (FIG. 7 and FIG. 8, listed as compound 5)
1 | CCCCCCCCCCCCCCCC(=O)OC1C(C)C2(O)C(C(=O)C(CO)=CC3(O)C(=O)C(C)=CC32)C2C(C)(C)C12OC(C)=O (stereo not shown) [Compound 2, 12-O-hexadecanoyl-7-oxo-5-ene-phorbol-13-acetate] | all induced the production of IFN-γ | induce the production of IFN-γ |  |  |  | 
2 | CCCCCCCCCCCCCCCC(=O)O[C@H]1[C@@H](C)[C@@]2(O)[C@@H](C=C(CO)C[C@]3(O)C(=O)C(C)=C[C@@H]23)[C@@H]2C(C)(C)C21OC(C)=O (stereo partly shown) [Compound 3, 12-O-hexadecanoyl-phorbol-13-acetate] | all induced the production of IFN-γ |  | 2 to 3 times | induce the production of IFN-γ |  | 
3 | CCCCCCCCCCCCCCCC(=O)O[C@@H]1[C@@H](C)[C@@]2(O)[C@@H](C(=O)C(CO)=C[C@]3(O)C(=O)C(C)=C[C@@H]23)[C@H]2[C@]1(OC(C)=O)[C@@]2(C)CO [Compound 1, 12-O-hexadecanoyl-7-oxo-5-ene-16-hydroxyphorbol-13-acetate] | all induced the production of IFN-γ |  | 2 to 3 times |  | induce the production of IFN-γ | 
4 | CCCCCCCCCCCCCCCC(=O)O[C@@H]1[C@@H](C)[C@]2(O)[C@@H]3C=C(C)C(=O)[C@@H]3CC(CO)=C[C@H]2[C@H]2[C@]1(OC(C)=O)[C@@]2(C)CO [Compound 5, 12-O-hexadecanoyl-4-deoxy-4α-16-hydroxyphorbol-13-acetate] | all induced the production of IFN-γ |  |  |  |  | induce the production of IFN-γ
